The text below walks through data of publication PMC3667747.

Assay [1] has as its target T1, VPS45-GFP (BEN2 / AtVPS45, VACUOLAR PROTEIN SORTING 45, wild type, fused to GFP) (Arabidopsis thaliana) (UniProt O49048).
T1 sequence: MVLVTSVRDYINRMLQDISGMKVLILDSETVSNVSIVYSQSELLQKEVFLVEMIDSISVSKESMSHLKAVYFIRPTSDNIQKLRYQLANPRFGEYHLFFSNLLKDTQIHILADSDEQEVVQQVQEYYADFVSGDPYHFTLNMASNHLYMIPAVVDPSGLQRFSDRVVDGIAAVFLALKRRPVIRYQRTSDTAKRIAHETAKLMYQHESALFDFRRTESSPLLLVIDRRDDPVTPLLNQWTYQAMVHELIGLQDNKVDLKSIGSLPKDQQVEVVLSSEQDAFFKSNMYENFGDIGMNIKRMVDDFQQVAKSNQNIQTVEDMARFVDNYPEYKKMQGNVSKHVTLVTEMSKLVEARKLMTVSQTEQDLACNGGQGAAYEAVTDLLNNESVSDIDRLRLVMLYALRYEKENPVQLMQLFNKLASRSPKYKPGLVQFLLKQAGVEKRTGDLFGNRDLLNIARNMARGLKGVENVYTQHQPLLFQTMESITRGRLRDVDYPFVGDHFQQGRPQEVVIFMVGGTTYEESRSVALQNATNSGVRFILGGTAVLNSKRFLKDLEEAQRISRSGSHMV
Briefly: co-IP; VPS45-GFP or VPS45D129N-GFP immunoprecipitated with anti-GFP antibody (micro-MACS GFP-tagged protein isolation kit) from detergent extracts of 12 day-old A. thaliana plantlets (0.5 g); immunoblot with anti-SYP4 and anti-GFP. On the technique in general: A western blot detects proteins with antibodies after separation by electrophoresis.

In assay [2] the target is T2, VPS45D129N-GFP (VPS45-GFP carrying the ben2 mutant sequence) (Arabidopsis thaliana) (UniProt O49048).
T2 sequence: T1 sequence with D129N
The assay is described as above.

Residue numbers refer to the chain shown, from its start. Results are given in words; binding and its absence hold for the method and conditions named. Binding seen in cells or lysates may run through a third protein. For some assays here: Binding calls can cover weak binding; strength is not graded here. Tags and fused reporters may be left off the sequences shown.

Turning to TGN-localized Qa-SNARE SYP4, the binding entry is given as “binds” in assay [1] and “no binding” in assay [2].
